Assay results as given in patent publication US20100317699A1, “USE OF HEDGEHOG AGONISTS IN THE TREATMENT OF MUSCULOSKELETAL-RELATED DISORDERS” (NOVARTIS AG, priority 2008, published 2010).
For at least one compound, name, drawing or mass did not settle the structure.

What was measured:
primary myoblasts = experiment: Primary myoblast proliferation, PI staining and FACS analysis; format: cell-based, mouse; settings: inhibitor 1 μM together with Shh-Ag
Procedure: Cells. TM3 and C2C12 cells were obtained from ATCC, propagated according to manufacturer's instructions, and maintained at subconfluence. Both primary myoblasts and isolated satellite cells were grown in Ham's F10 media supplemented with 20% Fetal calf serum and 1% Penicillin/Streptomycin without βFGF. All cells were plated on pre-coated collagen dishes (MatTek) or on plastic culture plates treated with rat tail collagen type I (BD).
Myoblast isolation. Two to three week-old male C57/BL/6J pups were used for the experiments. The mice were euthanized using CO2. Then the skin and fascia from the ankle joint up toward the hip were peeled to expose underlying muscles. The muscles (hamstring, quadriceps, tibialis anterior, extensor digitorum longus, gastrocnemius and soleus) from both legs were carefully removed, trying to any tendons and non-muscle tissues. The dissected muscles were placed in a sterile […] containing PBS and washed to remove hair and other debris. The muscles were then transferred to a sterile 35 mm^2 dish and 1.5 ml of a collagenase/dispase solution was added to digest the tissues. The tissues were mulched into a reasonably smooth pulp using sterile disposable followed by incubating at 37° C. for 12 min. They were then triturated using 5 ml plastic pipettes to homogenize the mixture. The incubation and triturating step was repeated once more. […]

Gli1 = Gli1 protein levels, Western blot densitometry; format: cell-based; settings: inhibitor 1 μM with Shh-Ag or rSHH (1 μg/mL)
Procedure: (§1) Protein expression. For details of protein extraction and analysis, please see Supplementary Methods online. Antibodies used for Western are rabbit polyclonal antibodies against Gli1, total Akt, phosphorylated Akt-Ser473 (Cell Signaling) and Cyclin D1 (Abeam).
(§2) Protein Expression. Cells were collected in lysis buffer (20 mM Tris, pH 7.5, 150 mM NaCl, 1 mM EDTA, 1 mM EGTA, 1% Nonidet NP-40, 1 mM β-glycerol phosphate, 1 mM Na3VO4, 1 μg/ml leupeptin, and 1 mM PMSF) and measured for protein concentration with a BCA protein assay kit (Pierce). Electrophoretic separation was performed utilizing 20-60 μg of protein on 4-12% mini-gels (Invitrogen). Proteins were transferred to a PVDF membrane, blocked in 5% blotto [5% powdered milk in TBST (Tris-buffered saline, 1% Tween 20)] for 1 hr followed by an overnight incubation at 4° C. with primary antibody. After overnight incubation, membranes were washed for 30 min in TBST and then probed with anti-rabbit antibody for 45 min at room temperature. After another 30 min of washing in TBST, the blots were developed with ECL. Once the appropriate image was captured, membranes were stained with Coomassie blue to verify equal loading in all lanes. Densitometric measurements were carried out using AlphaEase software (Alpha Innotech).

Cyclin D1 = Cyclin D1 protein levels, Western blot densitometry; format: cell-based; settings: inhibitor 1 μM with Shh-Ag or rSHH (1 μg/mL)
Procedure: as §1, §2

O=c1cc(N2CCOCC2)oc2c(-c3ccccc3)cccc12 [LY294002, reference compound]
effect on Shh-Ag induced myoblast proliferation (primary myoblasts): completely blocked cell proliferation | effect on Shh-Ag induced myoblast proliferation (primary myoblasts; listed as LY29002): blocking action | effect on Shh-Ag and rShh-mediated induction of Gli1 protein levels (Gli1): blocked | effect on Shh-Ag and rShh-mediated induction of Gli1 protein levels (Gli1; listed as LY29002): completely blocked | effect on increase in Cyclin D1 protein levels following Shh-Ag or rSHH treatment (Cyclin D1): completely blocked
